Measurements reported in paper PMC7782846.
Substitutions are numbered along the chain they refer to. Results are given in words; binding and its absence hold for the method and conditions named. Binding seen in cells or lysates may run through a third protein. Some results given as binding are weak or reduced against the parent protein; the word gives no strength. Sequences can lack the tags named with a protein.

By UniProt entry, the sequences of proteins in these tests, tags left out.
UniProt Q64310: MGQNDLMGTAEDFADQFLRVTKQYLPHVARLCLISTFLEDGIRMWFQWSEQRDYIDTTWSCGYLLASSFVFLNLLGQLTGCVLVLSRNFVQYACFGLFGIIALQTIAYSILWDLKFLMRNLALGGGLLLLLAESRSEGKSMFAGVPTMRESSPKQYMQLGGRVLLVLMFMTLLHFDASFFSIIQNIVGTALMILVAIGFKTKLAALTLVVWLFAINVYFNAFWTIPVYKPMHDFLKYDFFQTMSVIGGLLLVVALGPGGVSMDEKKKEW

Experiments:
[1] = target: T1, α-COP-FLAG (E241K), mouse (mouse) (UniProt Q8CIE6); assay: co-IP; α-COP-FLAG immunoprecipitated with anti-FLAG from lysates of transfected HEK293T cells (1% CHAPS, 150 mM NaCl, pH 7.2), western blot
T1 sequence: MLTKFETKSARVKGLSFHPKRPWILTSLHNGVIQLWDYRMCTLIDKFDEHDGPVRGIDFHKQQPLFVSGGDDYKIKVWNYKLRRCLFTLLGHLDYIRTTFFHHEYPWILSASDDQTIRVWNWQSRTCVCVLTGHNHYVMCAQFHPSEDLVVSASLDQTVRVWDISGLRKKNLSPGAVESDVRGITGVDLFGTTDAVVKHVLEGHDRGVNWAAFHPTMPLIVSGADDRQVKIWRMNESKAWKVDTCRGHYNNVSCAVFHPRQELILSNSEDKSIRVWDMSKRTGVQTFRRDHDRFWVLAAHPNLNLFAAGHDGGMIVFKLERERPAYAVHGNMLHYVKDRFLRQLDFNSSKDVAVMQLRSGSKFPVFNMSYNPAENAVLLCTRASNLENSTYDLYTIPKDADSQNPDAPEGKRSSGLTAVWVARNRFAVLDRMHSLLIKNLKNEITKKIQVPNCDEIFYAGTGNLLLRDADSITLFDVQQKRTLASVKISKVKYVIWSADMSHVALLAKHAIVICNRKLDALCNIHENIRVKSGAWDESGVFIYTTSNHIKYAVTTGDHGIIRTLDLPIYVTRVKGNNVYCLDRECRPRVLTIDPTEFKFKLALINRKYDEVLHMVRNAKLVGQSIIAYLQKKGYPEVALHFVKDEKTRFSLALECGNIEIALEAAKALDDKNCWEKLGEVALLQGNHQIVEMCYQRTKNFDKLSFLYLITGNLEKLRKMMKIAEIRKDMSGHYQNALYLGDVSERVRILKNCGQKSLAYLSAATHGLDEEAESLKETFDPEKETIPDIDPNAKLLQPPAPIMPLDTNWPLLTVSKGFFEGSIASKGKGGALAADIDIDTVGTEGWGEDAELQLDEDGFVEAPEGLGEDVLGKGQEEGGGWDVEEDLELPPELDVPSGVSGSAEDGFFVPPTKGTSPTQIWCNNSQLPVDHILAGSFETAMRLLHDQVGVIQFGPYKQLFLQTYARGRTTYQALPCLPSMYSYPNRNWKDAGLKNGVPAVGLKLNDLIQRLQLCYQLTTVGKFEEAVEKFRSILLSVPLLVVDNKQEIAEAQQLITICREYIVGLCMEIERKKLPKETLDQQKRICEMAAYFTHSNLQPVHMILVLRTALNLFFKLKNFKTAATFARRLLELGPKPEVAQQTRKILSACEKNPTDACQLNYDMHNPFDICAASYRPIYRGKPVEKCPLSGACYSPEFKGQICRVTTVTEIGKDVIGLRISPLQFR

[2] = target: T2, α-COP-FLAG (WT), mouse (mouse) (UniProt Q8CIE6); assay: as above
T2 sequence: T1 sequence with K241E

EGFP-mouse STING (mouse) = target: T3, EGFP-mouse STING (mouse) (UniProt Q3TBT3); assay: co-IP; EGFP-STING immunoprecipitated with anti-GFP nanobody beads from lysates of Sting-/- MEFs stably expressing EGFP-STING and HA-Surf4; cells also stimulated with cGAMP or DMXAA for 1 h; western blot
T3 sequence: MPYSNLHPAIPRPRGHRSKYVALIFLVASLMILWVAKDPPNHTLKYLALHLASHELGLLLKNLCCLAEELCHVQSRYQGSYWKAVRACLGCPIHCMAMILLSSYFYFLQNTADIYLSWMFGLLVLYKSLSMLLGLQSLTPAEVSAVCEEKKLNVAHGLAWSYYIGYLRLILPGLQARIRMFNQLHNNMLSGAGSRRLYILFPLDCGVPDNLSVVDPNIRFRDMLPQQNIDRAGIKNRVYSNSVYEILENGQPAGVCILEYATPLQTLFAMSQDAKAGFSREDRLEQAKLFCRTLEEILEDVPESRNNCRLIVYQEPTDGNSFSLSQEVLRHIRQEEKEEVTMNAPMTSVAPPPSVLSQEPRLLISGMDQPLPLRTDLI

- binding [1]: binds
- binding [2]: binds
- binding (EGFP-mouse STING (mouse)): binds
Substance: HA-Surf4, mouse (from UniProt Q64310 1-269)
